Data on 25 compounds can be found in PubChem BioAssay AID248 (DTP/NCI, 2004).

The test has as its system L1210 leukemia ip in BDF1 mice, survival T/C. The test can be described thus: NCI In Vivo Anticancer Drug Screen. Data for tumor model L1210 Leukemia (intraperitoneal) in B6D2F1 (BDF1) mice. Particulars: T/C endpoint: mean survival time, higher T/C = longer survival.
Where [1] appears, read: dose: 400.0 mg/kg/injection, schedule: Q04DX003 (ip), vehicle: saline.
Setting [2] is: dose: 200.0 mg/kg/injection, schedule: Q04DX003 (ip), vehicle: saline with Tween-80.
[3] abbreviates: dose: 400.0 mg/kg/injection, schedule: Q04DX003 (ip), vehicle: saline with Tween-80.
Setting [4] is: dose: 100.0 mg/kg/injection, schedule: Q01DX009 (ip), vehicle: carboxymethylcellulose (CMC).
Setting [5] is: dose: 200.0 mg/kg/injection, schedule: Q01DX009 (ip), vehicle: saline.
The mark [6] stands for this setting: dose: 100.0 mg/kg/injection, schedule: Q01DX009 (ip), vehicle: saline with Tween-80.
Where [7] appears, read: dose: 400.0 mg/kg/injection, schedule: Q04DX002 (ip), vehicle: Klucel (hydroxypropylcellulose) (HPC).
[8] abbreviates: dose: 400.0 mg/kg/injection, schedule: Q01DX001 (ip), vehicle: saline with Tween-80.

SMILES strings stand for the structures. The list does not hold the whole screen: it is rich in T/C values a quarter to a half above the control, in often repeated tests (any T/C) and in doses without a T/C. Further doses and runs are listed elsewhere. T/C gives the treated animals as a percentage of the vehicle group. Some doses have a count of surviving animals in place of a T/C: the source holds a T/C of zero for them, seemingly a mark for toxic or unscored doses. Some survivor counts are full or nearly so, which does not show that the dose was tolerated: survival well below the control is almost never listed, so the zero probably covers shortened survival too. Counts of survivors are from the toxicity check (mostly the fifth day) where no day follows; animals may have died later. Schedule codes are those of the source, read here as Q, the interval in days (D) or hours (H), X, the number of doses. Some schedules carry Z or #; the key to these is not given. Some structures stand for samples that the source files as different forms (salt, stereo form or complex); doses refer to the form tested. Where survival is the endpoint, this PubChem deposit counts one and a half times the control or more as active, and values a quarter to a half above the control carry no call in these data; other NCI protocols may use other cut-offs. Some doses were run more than once; the results are listed from low to high.

For the compound `O=C1C=CC(=O)N1c1ccc(F)cc1` (tested in a mixture with another compound), the survivor count (dose: 100.0 mg/kg/injection, schedule: Q04DX003 (ip), vehicle: other) is recorded as 6 of 6 and the survivor count (dose: 400.0 mg/kg/injection, schedule: Q04DX003 (ip), vehicle: acetone) is listed as 6 of 6.
With `Cc1cc([N+](=O)[O-])sc1[N+](=O)[O-]`, the survivor count is recorded as 6 of 6 (dose: 200.0 mg/kg/injection, schedule: Q04DX003 (ip), vehicle: saline) and 0 of 6 under setting [1].
For the compound `Cc1ccc(NC(=O)Nc2ccc(C)c(NC(=O)Nc3ccc(C)c(Cl)c3)c2)cc1Cl`, the survivor count under setting [2] is on record as 6 of 6 and the survivor count under setting [3] is listed as 6 of 6.
For `c1ccc(CCSc2ncnc3nc[nH]c23)cc1`, the T/C reads like this: (dose: 150.0 mg/kg/injection, schedule: Q01DX009 (ip), vehicle: saline) 130 % of control; (dose: 225.0 mg/kg/injection, schedule: Q01DX009 (ip), vehicle: saline) 134 % of control.
Consider `NC(N)=N/N=C/c1ccc(Cl)cc1Cl`, for which the survivor count is, setting by setting: (dose: 99.0 mg/kg/injection, schedule: Q01DX010 (oral), vehicle: saline) 4 of 7; (dose: 125.0 mg/kg/injection, schedule: Q01DX Z (ip), vehicle: saline) 4 of 6; (dose: 148.0 mg/kg/injection, schedule: Q01DX010 (oral), vehicle: saline) 4 of 6; (dose: 222.0 mg/kg/injection, schedule: Q01DX010 (oral), vehicle: saline) 3 of 6; (dose: 222.0 mg/kg/injection, schedule: Q01DX Z (oral), vehicle: saline) 0 of 6; (dose: 250.0 mg/kg/injection, schedule: Q01DX Z (ip), vehicle: saline) 0 of 6. Besides, the survivor count by setting is: (dose: 333.0 mg/kg/injection, schedule: Q01DX Z (oral), vehicle: saline) 0 of 6; (dose: 400.0 mg/kg/injection, schedule: Q01DX001 (ip), vehicle: saline) 0 of 4; (dose: 500.0 mg/kg/injection, schedule: Q01DX Z (ip), vehicle: saline) 0 of 6; (dose: 500.0 mg/kg/injection, schedule: Q01DX Z (oral), vehicle: saline) 0 of 6.
For `Cc1cc(NC(=O)Nc2ccc(Cl)c(C(F)(F)F)c2)no1`, the T/C reads like this: under setting [4], 87, 91, 99 % of control; (dose: 200.0 mg/kg/injection, schedule: Q01DX009 (ip), vehicle: carboxymethylcellulose (CMC)) 86, 90, 93, 100 % of control. The survivor count runs as follows: under setting [4], 3 of 3; (dose: 400.0 mg/kg/injection, schedule: Q01DX009 (ip), vehicle: carboxymethylcellulose (CMC)) 3 of 3.
For `O=c1[nH]c(=O)n(O)c2nc[nH]c12`, the survivor count is, setting by setting: under setting [2], 6 of 6; under setting [3], 4 of 6.
Regarding `CC(O)CC[P+](c1ccccc1)(c1ccccc1)c1ccccc1` (stereo not drawn), for the setting “dose: 300.0 mg/kg/injection, schedule: Q01DX001 (ip), vehicle: other”, the survivor count was 0 of 6.
Take `N#CC(C#N)=C(C#N)C#N`: the survivor count (dose: 12.5 mg/kg/injection, schedule: Q01DX009 (ip), vehicle: Klucel (hydroxypropylcellulose) (HPC)) is on record as 0 of 6.
Regarding `CC(=O)N1CCOC12CCN(Cc1ccccc1)CC2`, the survivor count by setting is: under setting [2], 4 of 6; under setting [3], 1 of 6.
On to `Cl[CH2][Sn]([c]1ccccc1)([c]1ccccc1)[c]1ccccc1`, for which the survivor count (dose: 25.0 mg/kg/injection, schedule: Q01DX009 (ip), vehicle: saline) is reported as 3 of 3; the survivor count (dose: 50.0 mg/kg/injection, schedule: Q01DX009 (ip), vehicle: saline) is 2 of 3; the survivor count (dose: 100.0 mg/kg/injection, schedule: Q01DX009 (ip), vehicle: saline) is 0 of 3; the survivor count under setting [5] is given as 0 of 3.
For `C/C=C/CNc1ccc(C)cc1`, the T/C under setting [6] was 140 % of control.
Consider `CC(C)(C)OC(=O)N1Cc2cc3ccccc3nc2C1`, for which the survivor count runs as follows: under setting [5], 3 of 6; under setting [1], 3 of 6.
As to `CN(C)c1ccc2nc3ccc(=[N+](C)C)cc-3sc2c1`, the survivor count is given as 10 of 10 (dose: 40.0 mg/kg/injection, schedule: Q01DX Z (ip), vehicle: carboxymethylcellulose (CMC)) and 1 of 6 (dose: 200.0 mg/kg/injection, schedule: Q01DX001 (ip), vehicle: saline).
In the case of `O=NN(CCCl)C(=O)Nc1ccc(Cn2ccc(=O)[nH]c2=O)cc1`, the T/C is 138 % of control (dose: 16.0 mg/kg/injection, schedule: Q01DX001 (ip), vehicle: carboxymethylcellulose (CMC)) and 128 % of control (dose: 93.0 mg/kg/injection, schedule: Q01DX001 (ip), vehicle: carboxymethylcellulose (CMC)). Also, the survivor count was 4 of 6 (dose: 250.0 mg/kg/injection, schedule: Q01DX001 (ip), vehicle: carboxymethylcellulose (CMC)); 5 of 6 (dose: 375.0 mg/kg/injection, schedule: Q01DX001 (ip), vehicle: carboxymethylcellulose (CMC)); 4 of 6 (dose: 500.0 mg/kg/injection, schedule: Q01DX001 (ip), vehicle: carboxymethylcellulose (CMC)); 5 of 6 (dose: 750.0 mg/kg/injection, schedule: Q01DX001 (ip), vehicle: carboxymethylcellulose (CMC)).
`NC(=O)c1ccccc1OC(=O)Nc1ccccc1`: the survivor count reads like this: (dose: 200.0 mg/kg/injection, schedule: Q01DX009 (ip), vehicle: Klucel (hydroxypropylcellulose) (HPC)) 1 of 6; under setting [7], 3 of 3.
As for `COc1cc2c(cc1OC)C1Cc3ccc(OC)c(OC)c3CN1CC2` (stereo not drawn), under setting [7], the survivor count is given as 1 of 3.
Take `OC(C1CCCCN1)C12CC3CC(CC(C3)C1)C2` (stereo not drawn): the survivor count runs as follows: (dose: 200.0 mg/kg/injection, schedule: Q01DX009 (ip), vehicle: saline with Tween-80) 0 of 6; under setting [3], 0 of 6.
With `C\C(=C/C(=N/N=C/c1ccco1)c1ccccc1)c1ccccc1`, the survivor count (dose: 300.0 mg/kg/injection, schedule: Q01DX001 (ip), vehicle: saline) is given as 1 of 6.
Take `NCC(=O)NO`: the survivor count (dose: 296.0 mg/kg/injection, schedule: Q01DX015 (ip), vehicle: water) is 0 of 6; the survivor count (dose: 300.0 mg/kg/injection, schedule: Q01DX015 (ip), vehicle: water) is listed as 5 of 6; the survivor count (dose: 444.0 mg/kg/injection, schedule: Q01DX015 (ip), vehicle: water) is reported as 1 of 6; the survivor count (dose: 666.0 mg/kg/injection, schedule: Q01DX015 (ip), vehicle: water) is 0 of 6; the survivor count (dose: 1000.0 mg/kg/injection, schedule: Q01DX015 (ip), vehicle: water) is reported as 0 of 6.
As for `C=C(C)COc1c(Cl)cc(Cl)cc1C=Nc1ccccc1`, the survivor count under setting [8] is given as 6 of 6.
For the compound `Nc1ccccc1SC1CC(=O)N(c2cccc3ccccc23)C1=O` (stereo not drawn), the survivor count (dose: 200.0 mg/kg/injection, schedule: Q04DX003 (ip), vehicle: Klucel (hydroxypropylcellulose) (HPC)) is on record as 5 of 6.
As for `CC(C)(C)C(CCC(=O)O)CC(=O)O` (stereo not drawn), the survivor count under setting [6] is on record as 6 of 6.
`CC(C)CC(CC(C)C)NCCO`: the survivor count (dose: 150.0 mg/kg/injection, schedule: Q01DX001 (ip), vehicle: acid diluted with saline) is on record as 2 of 6 and the survivor count (dose: 300.0 mg/kg/injection, schedule: Q01DX001 (ip), vehicle: acid diluted with saline) is given as 0 of 6.
Turning to `CC1(C)N=C(N)N=C(N)N1c1cccc(OCCCOc2cccc(N)c2)c1`, the survivor count is on record as 1 of 6 (dose: 100.0 mg/kg/injection, schedule: Q01DX001 (ip), vehicle: saline with Tween-80); 0 of 6 (dose: 100.0 mg/kg/injection, schedule: Q01DX001 (ip), vehicle: saline); 1 of 6 (dose: 200.0 mg/kg/injection, schedule: Q01DX001 (ip), vehicle: saline with Tween-80); 0 of 6 under setting [8].
